# Results taken from patent US8097728B2, “Iminosugar compounds with antiflavirus activity” (Philadelphia Health & Education Corporation, priority 2007, dated 2012).
# At least one structure is not confirmed: it was looked up by name or label, or the drawing left a doubt.
# System: HBV
# Assay: HBV antigen assay: LHBs and MHBs secreted by HepG2.2.15 cells, immunoblot
# Assay type: cell-based, Hepatitis B virus
# Conditions: 30 uM, 7 days, FIG. 6B
# Protocol: MHBs and LHBs are HBV envelope proteins that are sensitive to glucosidase inhibition and inhibition of these important viral glycoproteins serves as a surrogate for HBV growth. […] To assess the activity of this compound in the context of viral replication, HepG2 2.2.15 cells were incubated with the indicated DNJ derived compound. HepG 2.2.15 cells secrete readily detectable amounts of MHBs and LHBs into the culture medium. After 7 days of incubation, the amount of HBV M and L in the culture medium was determined by western blot. […] The nature of the selective antiviral activity is not known, but may be due to cell specific activity since HBV is studied in human liver derived hepatoblastoma HepG2 cells and BVDV and WNV were studied in MDBK and BHK cells, respectively.
# HBV antigen assay: Antiviral activity against HBV was determined using HepG2.2.15 cells, which contain a dimer of the HBV genome and express all viral gene products, including envelope glycoproteins (Sells, Chen, and Acs, 1987). Briefly, HepG2.2.15 cells were seeded in 24 well trays, and allowed to grow to confluence prior to addition of drug, as described previously (Simsek et al., 2005). […] Quantitation was performed using AlphaEase software (Alphalnnotech).
structure (smiles),measurement,value
"OC[C@@H]1[C@@H](O)[C@H](O)[C@@H](O)CN1CCCCCC1(O)CCCCC1 [OSL-95II, N-pentyl(1-hydroxycyclohexyl)-1,5-dideoxy-1,5-imino-D-glucitol]",reduction of MHBs and LHBs in culture medium (in words),nearly as effective in reducing the amount of MHBs and LHBs
